Test results taken from patent publication US7273715B2 (priority 2003, dated 2007).
At least one compound was matched to its structure with a doubt left. Peptide text beside a SMILES is read from it. * marks the point of attachment. Cbz = O=C(OCc1ccccc1)*

Molecular target: T1, 9005 Hydrolase A (Homo sapiens, UniProt P42785)
T1 construct: Varying amounts of purified GS-9005 hydrolase A and control enzymes; from tissue; host or cells: human peripheral blood mononuclear cells (PBMC), purified by Q15 flow-through, SP-Sepharose, Butyl Sepharose HIC and lentil lectin chromatography
T1 sequence (P42785 46-496): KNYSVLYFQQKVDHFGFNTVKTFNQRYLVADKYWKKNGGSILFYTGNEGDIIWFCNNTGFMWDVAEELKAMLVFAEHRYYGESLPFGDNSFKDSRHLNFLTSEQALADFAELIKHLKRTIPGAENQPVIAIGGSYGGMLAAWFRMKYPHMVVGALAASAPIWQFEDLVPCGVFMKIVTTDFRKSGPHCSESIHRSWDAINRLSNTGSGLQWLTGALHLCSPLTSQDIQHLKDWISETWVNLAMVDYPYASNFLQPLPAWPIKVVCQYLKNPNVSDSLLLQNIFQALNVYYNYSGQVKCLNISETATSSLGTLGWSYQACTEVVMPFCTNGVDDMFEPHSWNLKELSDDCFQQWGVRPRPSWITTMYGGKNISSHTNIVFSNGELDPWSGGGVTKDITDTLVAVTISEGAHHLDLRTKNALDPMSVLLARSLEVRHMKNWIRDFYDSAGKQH
Assay type: biochemical
Parameters: key to the marks not given beside the values

C[C@H](NC(=O)[C@@H]1CCCN1C(=O)OCc1ccccc1)C(=O)O [Cbz-pro-ala] (Cbz-Pro-Ala-OH)
Cleavage of Cbz-pro-ala, 9005 Hydrolase A: ++
